Test results taken from article PMC7819943, “Rice protein-binding microarrays: a tool to detect cis-acting elements near promoter regions in rice”.
The other results are listed elsewhere or left out.

Protein sequences, listed by entry. Tags and fused reporters are not part of them.
UniProt Q0JBA9, entry or part of it: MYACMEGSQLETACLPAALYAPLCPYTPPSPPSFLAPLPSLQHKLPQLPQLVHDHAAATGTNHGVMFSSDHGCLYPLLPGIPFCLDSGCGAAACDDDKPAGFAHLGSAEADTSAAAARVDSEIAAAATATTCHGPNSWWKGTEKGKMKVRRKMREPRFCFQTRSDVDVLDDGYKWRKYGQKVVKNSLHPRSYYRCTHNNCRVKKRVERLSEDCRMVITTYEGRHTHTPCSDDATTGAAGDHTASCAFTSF

The sequences below were run against OsWRKY34 (Oryza sativa, UniProt Q0JBA9 1-250) (assay: protein-binding microarray (RPBM); PBS, 2% BSA, 51.3 ng/ul salmon testes DNA, 50 uM zinc acetate, 200 nM TF, 25 C, 1 h; high values mean tight binding). Details: protein: recombinant; tags: N-terminal polyhistidine and DsRed monomer fusion (pET32a); label: CyDye5-dUTP incorporated in the synthesized complementary strand; 3' TTTTT single-stranded linker to array surface; dsDNA, one strand shown.
Summary of the method: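 Binding signal is defined as the fluorescence intensity of each feature in arbitrary units, read on an Axon 4000B scanner. Transcription factors with N-terminal polyhistidine and DsRed fusions came from E. coli BL21-CodonPlus and were purified on Ni–NTA. They were incubated at 200 nM for 1 h at 25 °C on a custom Agilent array that had been made double-stranded with Cy5-dUTP, with 50 µM zinc acetate present, and the array was washed.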

Sequence	binding signal
AATGAACTTCCAGCTTTGCCACATTCCTTTGGCTTGAAAACGGAGTCACCTAGTGCAG	8300 fluorescence intensity (a.u.)
GCACAAACTTCGTACTTTAACTCCTACGGTTTTATTTTTTCGGAGTCACCTAGTGCAG	11000 fluorescence intensity (a.u.)
TGGGGTTCTTGTTTTTCTTTTCCGGGATCTTTGGGTGATGCGGAGTCACCTAGTGCAG	15900 fluorescence intensity (a.u.)
TCCAATCAAACGCGTTTTTTCTGTGTTTTGCAATCGTCTGCGGAGTCACCTAGTGCAG	10700 fluorescence intensity (a.u.)
GTCAGGTCTGCTTCCGCCCGCTGAGCTTCACGCCGTCCTCCGGAGTCACCTAGTGCAG	10800 fluorescence intensity (a.u.)
GACGCCGTTGACTTTTTATCACATATTTGACCGTTCGTCTCGGAGTCACCTAGTGCAG	20400 fluorescence intensity (a.u.)
TATTCATGTTTTTATGGACGTTAGCAACATTATCACAAAACGGAGTCACCTAGTGCAG	8030 fluorescence intensity (a.u.)
ATGTTCGTTGACTTAAGTTCGCGCCAATACATATCCAGCACGGAGTCACCTAGTGCAG	12000 fluorescence intensity (a.u.)
CGTATGCCGCGCGCCCACTGTATAAATAGGCCGCATGTTCCGGAGTCACCTAGTGCAG	9680 fluorescence intensity (a.u.)
ACGGTTATAGGGGTGGCTAGGATTGAACCAACATAAATTGCGGAGTCACCTAGTGCAG	8280 fluorescence intensity (a.u.)
TCACTTCGGCTTCGCTTCCATGGCGATCACCGCGGCCACCCGGAGTCACCTAGTGCAG	8680 fluorescence intensity (a.u.)
GTCATTTCCAGAACTAGTCATGTCCTTCGATCTGCTTGTTCGGAGTCACCTAGTGCAG	8230 fluorescence intensity (a.u.)
CCCACGGTTTCCACGTCGCGTGTGCATCTGCAACTCATCTCGGAGTCACCTAGTGCAG	9770 fluorescence intensity (a.u.)
CAAAACTCTCTTGTCGTCCTCAAACCATTACCTGGCATAGCGGAGTCACCTAGTGCAG	8290 fluorescence intensity (a.u.)
ATCATGTTTTTTATACTTTAATGTACACACGAACTATATACGGAGTCACCTAGTGCAG	8470 fluorescence intensity (a.u.)
TACCTTCTGACGTTATCTTCTGCTTTGATTTTACGTCACACGGAGTCACCTAGTGCAG	10100 fluorescence intensity (a.u.)
GTCCCTCCGTCTTATTTTAAGTGTATTTATGGTTTTTTTTCGGAGTCACCTAGTGCAG	9320 fluorescence intensity (a.u.)
TTATTCCTGGTGATGTTATAAATTGATTTCTCTATAGACACGGAGTCACCTAGTGCAG	8150 fluorescence intensity (a.u.)
GCTACACAAAATATTTTTGTGCCATTATTTTTTTTCCATACGGAGTCACCTAGTGCAG	8400 fluorescence intensity (a.u.)
AATAGTTCGTGTGACGTTAATGGTCCCGTTCTTTGCTTCACGGAGTCACCTAGTGCAG	9370 fluorescence intensity (a.u.)
AACCTGAACACATATTCATCAAACAAACACATTTATATTTCGGAGTCACCTAGTGCAG	8230 fluorescence intensity (a.u.)

Part of the list above, set out differently:
Sequence | binding signal
TTATTCCTGGTGATGTTATAAATTGATTTCTCTATAGACACGGAGTCACCTAGTGCAG | 8150 fluorescence intensity (a.u.)
GCTACACAAAATATTTTTGTGCCATTATTTTTTTTCCATACGGAGTCACCTAGTGCAG | 8400 fluorescence intensity (a.u.)

The results go on:

Sequence	binding signal
TTCTCTGTTTCTTCTGCCTTCACCACCTGCTCCACATTTTCGGAGTCACCTAGTGCAG	10900 fluorescence intensity (a.u.)
AGTAGCATTTGTTGACTTGTTGTATTCTTCTAGCCTTTTTCGGAGTCACCTAGTGCAG	13800 fluorescence intensity (a.u.)
GCTGCGGCCGTCAACGTGGTCGTCGTCTCCGCGGCCGCCGCGGAGTCACCTAGTGCAG	46900 fluorescence intensity (a.u.)
ACCACTCTCTTCAAAAATAGGTCCTCTACAGTACTGTCTTCGGAGTCACCTAGTGCAG	8780 fluorescence intensity (a.u.)
GGGTTGGAAGGGAGGCGGCGGGAGAGCACGGTAGCGCTAGCGGAGTCACCTAGTGCAG	10600 fluorescence intensity (a.u.)
AGAATTGATTAGCTCTTGTTTCTATCATGTTAAACACATTCGGAGTCACCTAGTGCAG	8420 fluorescence intensity (a.u.)
AGCCGGCTGCATGCGTCGCTCTTCGCCCACCGCTGCGCCGCGGAGTCACCTAGTGCAG	8440 fluorescence intensity (a.u.)
ATATCTAGACAATCAAGCTGTTGACCGAGTTTTCAGGGTGCGGAGTCACCTAGTGCAG	10600 fluorescence intensity (a.u.)
CCGCGTCGCCGCCACCACCACGTCGCCTGTCGCCAGCCTACGGAGTCACCTAGTGCAG	8270 fluorescence intensity (a.u.)
ATTTGACCACGTTGACCAATTGTATAAAATTGGGGACGACCGGAGTCACCTAGTGCAG	11400 fluorescence intensity (a.u.)
TCAGTGCAAAATATCTCGTACATTAGTATCATCACTTTCTCGGAGTCACCTAGTGCAG	8360 fluorescence intensity (a.u.)
GAGTACTTTCTGACTCTGAGCTTGAAGTCTATGCCACATCCGGAGTCACCTAGTGCAG	8280 fluorescence intensity (a.u.)
AATTTCACTTTCGATCTTAATTATTTTACCTGGTTCATTTCGGAGTCACCTAGTGCAG	10900 fluorescence intensity (a.u.)
GCCGATAGAGGCATGGGGTTTGTTCAGATTGATGTCATTTCGGAGTCACCTAGTGCAG	9370 fluorescence intensity (a.u.)
TCAGAGGTTTTCTTTTCTTCTTCTGCGAATTTCCTCTGACCGGAGTCACCTAGTGCAG	10100 fluorescence intensity (a.u.)
TATATTTTTTACAGGTTTGTGGGCATTTTTCTCTGGGCCCCGGAGTCACCTAGTGCAG	8640 fluorescence intensity (a.u.)
AATTTTTCTATGGTTCTTGTGTGTCCCTAAGCGTGAAAAACGGAGTCACCTAGTGCAG	9200 fluorescence intensity (a.u.)
ATACCATCATATACACCAGCCATTGATCTTTTTTTTTAATCGGAGTCACCTAGTGCAG	8390 fluorescence intensity (a.u.)
ATGTGGTCTATAGAAGAAAAATATTTCTATTTCATTTCATCGGAGTCACCTAGTGCAG	8130 fluorescence intensity (a.u.)
AGTCCACCTCTGCGCCCGGCCCGCCGCCGCCTCGTCGCCACGGAGTCACCTAGTGCAG	10900 fluorescence intensity (a.u.)
GATTGGTTTTGCTTCGCTCTCATGAAATTGTTTCATAGTACGGAGTCACCTAGTGCAG	8430 fluorescence intensity (a.u.)
